Measurements reported in PubChem BioAssay AID1224830 (NIAID, 2016)
Purpose: 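Host factors that control LPS-induced TNF expression in human macrophages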 (primary screen). Cell system: human THP-1 monocytic leukaemia cells, TNF dual-luciferase reporter clone, PMA-differentiated to macrophage-like cells. Reagent: siRNA pool against human genes, 50 nM. Timing: LPS for 4 h, given about 3 days after siRNA transfection. Challenge: bacterial LPS (TLR4 ligand), 10 ng/ml. Detection: 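TNF firefly reporter luminescence divided by renilla, normalised to the plate median, then turned into a robust z-score for each replicate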. Direction: TNF reporter robust z-score: higher = stronger TNF reporter response to LPS. Rule for the call: 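a well is active when its z-score exceeds 2.8 or falls below -1.5; control wells carry no call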.
The deposit covers about 18,000 reagents; this is an unselected part. About 2,900 of them (16%) were called active. 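Calls are made per well; low scores hint the gene aids the LPS response, high scores that it dampens it.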 A number with no mark means an inactive call. Repeated entries: four replicate wells of each siRNA pool.

What did the screen give for MED6 (mediator complex subunit 6)?
TNF reporter robust z-score: -0.45

With MED6 (mediator complex subunit 6), how do the results read?
TNF reporter robust z-score: -0.3

What did the screen give for MED6 (mediator complex subunit 6)?
TNF reporter robust z-score: -0.27

What did the screen give for MED6 (mediator complex subunit 6)?
TNF reporter robust z-score: 0.43

With GOLGA6A (golgin A6 family member A), what was measured?
TNF reporter robust z-score: 0.3

What did the screen give for GOLGA6A (golgin A6 family member A)?
TNF reporter robust z-score: 0.67

With GOLGA6A (golgin A6 family member A), what was measured?
TNF reporter robust z-score: -0.12

How did the screen score GOLGA6A (golgin A6 family member A)?
TNF reporter robust z-score: 0.56

How did the screen score ADCY1 (adenylate cyclase 1)?
TNF reporter robust z-score: -0.56

With ADCY1 (adenylate cyclase 1), how do the results read?
TNF reporter robust z-score: 0.61

What is on record for ADCY1 (adenylate cyclase 1)?
TNF reporter robust z-score: 0.05

For ADCY1 (adenylate cyclase 1), how do the results read?
TNF reporter robust z-score: -0.08

For C1orf87 (chromosome 1 open reading frame 87), what was measured?
TNF reporter robust z-score: -0.32

Which result is listed for C1orf87 (chromosome 1 open reading frame 87)?
TNF reporter robust z-score: 0.9

For C1orf87 (chromosome 1 open reading frame 87), what does the deposit list?
TNF reporter robust z-score: 0.4

With C1orf87 (chromosome 1 open reading frame 87), how do the results read?
TNF reporter robust z-score: 0.73

With HS3ST3A1 (heparan sulfate-glucosamine 3-sulfotransferase 3A1), what was measured?
TNF reporter robust z-score: 0.15

What did the screen give for HS3ST3A1 (heparan sulfate-glucosamine 3-sulfotransferase 3A1)?
TNF reporter robust z-score: 1.04

How did the screen score HS3ST3A1 (heparan sulfate-glucosamine 3-sulfotransferase 3A1)?
TNF reporter robust z-score: 0.47

For HS3ST3A1 (heparan sulfate-glucosamine 3-sulfotransferase 3A1), what was measured?
TNF reporter robust z-score: 0.54

With TRMT10A (tRNA methyltransferase 10A), what was measured?
TNF reporter robust z-score: 1.64

Which result is listed for TRMT10A (tRNA methyltransferase 10A)?
TNF reporter robust z-score: 0.2

For TRMT10A (tRNA methyltransferase 10A), how do the results read?
TNF reporter robust z-score: -0.01

With TRMT10A (tRNA methyltransferase 10A), how do the results read?
TNF reporter robust z-score: -0.63

Which result is listed for ASF1B (anti-silencing function 1B histone chaperone)?
TNF reporter robust z-score: -0.88

How did the screen score ASF1B (anti-silencing function 1B histone chaperone)?
TNF reporter robust z-score: -0.58

What is on record for ASF1B (anti-silencing function 1B histone chaperone)?
TNF reporter robust z-score: -0.6

With ASF1B (anti-silencing function 1B histone chaperone), what does the deposit list?
TNF reporter robust z-score: 0.82

For COL28A1 (collagen type XXVIII alpha 1 chain), what does the deposit list?
TNF reporter robust z-score: -0.17

With COL28A1 (collagen type XXVIII alpha 1 chain), what was measured?
TNF reporter robust z-score: 0.08

With COL28A1 (collagen type XXVIII alpha 1 chain), how do the results read?
TNF reporter robust z-score: -0.14

With COL28A1 (collagen type XXVIII alpha 1 chain), what does the deposit list?
TNF reporter robust z-score: 0.01
